Structures can show the parent of a compound that is named as a salt. Some of the results follow. This data set is noisy: repeats of one test often differ as much as different tests do.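 The cells were human embryonic kidney cells carrying a Renilla luciferase gene, driven by the HSV-TK promoter, on a plasmid put in briefly by transfection. This is the first-round screen of about ten thousand compounds, looking for ones that raise reporter output.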
Each molecule was assayed on HEK 293FT (assay: log relative Renilla luciferase luminescence (reporter expression vs reference, reference not stated) (log (base not stated)); higher = higher recombinant reporter expression). Conditions: 10 µM; time after transfection 48 h.

Q: `OCCN1CCN(CCCN2c3ccccc3Sc3ccc(Cl)cc32)CC1` [perphenazine] was tested. Which log did it give?
A: Its log is 0.224.

Q: For `CN(C)CCc1c[nH]c2ccc(Cn3cncn3)cc12` [rizatriptan benzoate], which log is on record?
A: The log was 0.0604.

Q: Which log does the source give for `COc1cc(/C=C/C(=O)O)cc(OC)c1OC` [sinapic acid methyl ether] here?
A: Its log is 0.0467.

Q: With `N[C@H]1C(O)O[C@H](CO)[C@@H](O)[C@@H]1O` (stereo not given in full) [glucosamine hydrochloride] as the molecule, how does the log read?
A: The log was 0.125.

Q: With `C=C1C[C@H]2[C@@H]3C=C(C)C4=CC(=O)CC[C@]4(C)[C@H]3CC[C@]2(C)[C@@]1(OC(C)=O)C(C)=O` [melengestrol acetate] as the molecule, how does the log read?
A: Its log is -1.64.

Q: For `NC(C(=O)O)C(O)C(=O)O` (stereo not drawn) [d,l-threo-3-hydroxyaspartic acid], which log is on record?
A: Its log is 0.0569.

Q: For `N=C(N)NC(=N)N1CCOCC1` [moroxydine hydrochloride], which log is on record?
A: Its log is 0.0147.

Q: `CC(=O)Oc1cccc2c1C(=O)c1c(OC(C)=O)cc(C(=O)O)cc1C2=O` [diacerin] was tested. Which log did it give?
A: Its log is -0.0713.

Q: How did the log turn out when `CC1NC(=O)NC1=O` (stereo not given) [5-methylhydantoin] was run?
A: The log was 0.0116.

Q: How did the log turn out when `Cc1ncc(CSSCc2cnc(C)c(O)c2CO)c(CO)c1O` [pyritinol] was run?
A: The log was 0.0418.

Q: Which log does the source give for `CN1CCCCC1CCN1c2ccccc2Sc2ccc([S+](C)[O-])cc21` (stereo not given) [mesoridazine besylate] here?
A: The log was -0.0105.

Q: Which log does the source give for `COc1c(-c2ccccc2)oc2cc(O)cc(O)c2c1=O` [galangin 3-o-methyl ether] here?
A: The log was 0.056.

Q: With `O=C(O[C@H]1CN2CCC1CC2)N1CCc2ccccc2[C@@H]1c1ccccc1` [solifenacin succinate] as the molecule, how does the log read?
A: The log was -0.0467.

Q: With `NC(=O)N/N=C/c1ccc([N+](=O)[O-])o1` [nitrofurazone] as the molecule, how does the log read?
A: Its log is -0.0277.

Q: For `CC1=CC(=O)NS(=O)(=O)O1` [acesulfame potassium], which log is on record?
A: The log was 0.0874.

Q: For `CCCC(=O)Nc1ncnc2c1ncn2[C@@H]1O[C@@H]2COP(=O)(O)O[C@H]2[C@H]1OC(=O)CCC` [bucladesine], which log is on record?
A: The log was 0.0261.

Q: With `CC(=O)N[C@@H](CCC(=O)O)C(=O)O` [acetylglutamic acid] as the molecule, how does the log read?
A: Its log is 0.114.

Q: `CN(C)CCC[C@@]1(c2ccc(F)cc2)OCc2cc(C#N)ccc21` [escitalopram oxalate] was tested. Which log did it give?
A: The log was -1.46.

Q: How did the log turn out when `CN1CCCC(n2nc(Cc3ccc(Cl)cc3)c3ccccc3c2=O)CC1` (stereo not given) [azelastine hydrochloride] was run?
A: The log was 0.0463.

Q: For `O=C(CNC(=O)c1ccc(Cl)cc1)NO` [benurestat], which log is on record?
A: The log was 0.0147.

Q: `CC(=O)Oc1cccc(O)c1` [resorcinol monoacetate] was tested. Which log did it give?
A: The log was 0.255.

Q: `CCN1CCN(C(=O)N[C@@H](C(=O)N[C@@H]2C(=O)N3[C@@H]2SC(C)(C)[C@@H]3C(=O)O)c2ccccc2)C(=O)C1=O` [piperacillin sodium] was tested. Which log did it give?
A: Its log is -0.0298.

Q: With `C=CCCCCCCCCCCCC(O)CC(O)CO` (stereo not given) [avocadene] as the molecule, how does the log read?
A: The log was 0.0726.

Q: With `CO[C@@H]1[C@@H](OC(N)=O)[C@@H](O)[C@H](Oc2ccc3c(O)c(NC(=O)c4ccc(O)c(CC=C(C)C)c4)c(=O)oc3c2C)OC1(C)C` [novobiocin sodium] as the molecule, how does the log read?
A: The log was -0.0988.

Q: `CN1C2CCCC1CC(NC(=O)c1nn(C)c3ccccc13)C2` (stereo not given) [granisetron hydrochloride] was tested. Which log did it give?
A: The log was 0.164.

Q: Which log does the source give for `CC(C)CCC[C@@H](C)[C@H]1CC[C@H]2[C@@H]3CC=C4CC(=O)CC[C@]4(C)[C@H]3CC[C@]12C` [cholest-5-en-3-one] here?
A: The log was 0.033.

Q: With `CC(C)N1CCN(c2ccc(OCC3COC(Cn4cncn4)(c4ccc(Cl)cc4Cl)O3)cc2)CC1` (stereo not given) [terconazole] as the molecule, how does the log read?
A: Its log is -0.241.

Q: For `CCN(Cc1ccncc1)C(=O)C(CO)c1ccccc1` (stereo not given) [tropicamide], which log is on record?
A: The log was -0.0739.

Q: Which log does the source give for `OC(CCN1CCCCC1)(c1ccccc1)C1CC2C=CC1C2` (stereo not given) [biperiden] here?
A: The log was -0.0702.

Q: With `Cc1ncc([N+](=O)[O-])n1CCO` [metronidazole] as the molecule, how does the log read?
A: The log was -0.147.

Q: How did the log turn out when `CCN(CC)CC#CCOC(=O)C(O)(c1ccccc1)C1CCCCC1` (stereo not given) [oxybutynin chloride] was run?
A: Its log is -0.0775.

Q: `Oc1nc2cc(Cl)c(Cl)cc2nc1O` [2,3-dihydroxy-6,7-dichloroquinoxaline] was tested. Which log did it give?
A: The log was 0.0931.

Q: `CC(=O)OC1CCC23CC1(C)CCC2C(C)(C)CC3OC(C)=O` (stereo not given) [clovanediol diacetate] was tested. Which log did it give?
A: Its log is 0.0342.

Q: For `C=CC[C@@H]1/C=C(\C)C[C@H](C)C[C@H](OC)[C@H]2O[C@@](O)(C(=O)C(=O)N3CCCC[C@H]3C(=O)O[C@H](/C(C)=C/[C@@H]3CC[C@@H](O)[C@H](OC)C3)[C@H](C)[C@@H](O)CC1=O)[C@H](C)C[C@@H]2OC` [tacrolimus], which log is on record?
A: Its log is 0.208.

Q: For `NC[C@H]1O[C@H](O[C@H]2[C@H](O[C@@H]3O[C@H](CO)[C@@H](O)[C@H]3O)[C@@H](O)[C@H](N)C[C@@H]2N)[C@H](N)[C@@H](O)[C@@H]1O` [ribostamycin sulfate], which log is on record?
A: The log was 0.00428.

Q: Which log does the source give for `COc1ccc2[nH]cc(CCNC(C)=O)c2c1` [melatonin] here?
A: Its log is 0.0204.

Q: `CCn1cc(C(=O)O)c(=O)c2cnc(N3CCNCC3)nc21` [pipemidic acid] was tested. Which log did it give?
A: The log was 0.074.

Q: How did the log turn out when `COc1cc2nc(N3CCN(C(=O)c4ccco4)CC3)nc(N)c2cc1OC` [prazosin hydrochloride] was run?
A: Its log is -0.00201.

Q: How did the log turn out when `NCCS(=O)(=O)O` [taurine] was run?
A: The log was -0.102.

Q: Which log does the source give for `O=c1c(O)cccc2cc(O)c(O)c(O)c12` [purpurogallin] here?
A: The log was 0.104.

Q: `Cc1ccc(S(=O)(=O)NC(=O)NN2CC3CCCC3C2)cc1` (stereo not given) [gliclazide] was tested. Which log did it give?
A: The log was 3.55e-05.

Q: `CC(=O)N[C@@H](CC(=O)N[C@@H](CCC(=O)O)C(=O)O)C(=O)O` [spaglumic acid] was tested. Which log did it give?
A: Its log is 0.089.

Q: Which log does the source give for `Nc1nc(=O)c2[nH]c(=O)cnc2[nH]1` [xanthopterin] here?
A: The log was -0.15.

Q: With `C#CCN(C)Cc1ccccc1` [pargyline hydrochloride] as the molecule, how does the log read?
A: The log was -0.0289.

Q: With `CC(=O)O[C@H]1CC[C@@]2(C)[C@H](CC[C@@H]3[C@@H]2CC[C@]2(C)[C@@H]4[C@H](C[C@@H]32)O[C@]2(CC[C@@H](C)CO2)[C@H]4C)C1` [smilagenin acetate] as the molecule, how does the log read?
A: The log was -0.00666.

Q: `CCCCCC(C)N` (stereo not given) [tuaminoheptane sulfate] was tested. Which log did it give?
A: The log was 0.00562.

Q: With `COc1ccc2cc(CCC(C)=O)ccc2c1` [nabumetone] as the molecule, how does the log read?
A: The log was 0.184.

Q: For `O=C(O)CCC(=O)OC[C@@H](NC(=O)C(Cl)Cl)[C@H](O)c1ccc([N+](=O)[O-])cc1` [chloramphenicol sodium succinate], which log is on record?
A: The log was -0.215.

Q: `CCn1cc(C(=O)O)c(=O)c2ccc(C)nc21` [nalidixic acid] was tested. Which log did it give?
A: The log was 0.239.

Q: Which log does the source give for `COc1ccc(-c2oc3c(CC=C(C)C)c(O[C@@H]4O[C@H](CO)[C@@H](O)[C@H](O)[C@H]4O)cc(O)c3c(=O)c2O[C@@H]2O[C@@H](C)[C@H](O)[C@@H](O)[C@H]2O)cc1` [icariin] here?
A: Its log is -0.195.

Q: `C[C@H]1[C@@H](O)O[C@@H]2O[C@@]3(C)CC[C@H]4[C@H](C)CC[C@@H]1[C@@]24OO3` [artenimol] was tested. Which log did it give?
A: Its log is -0.484.

Q: Which log does the source give for `CCN(CC)CCNC(=O)c1cc(S(C)(=O)=O)ccc1OC` [tiapride hydrochloride] here?
A: The log was 0.0566.

Q: Which log does the source give for `O=C(CCCN1CC=C(n2c(=O)[nH]c3ccccc32)CC1)c1ccc(F)cc1` [droperidol] here?
A: The log was 0.0943.

Q: With `Oc1c(I)cc(I)c2cccnc12` [iodoquinol] as the molecule, how does the log read?
A: The log was -0.0417.

Q: `O=c1cc(-c2ccc(O)cc2)oc2cc(O)cc(O)c12` [apigenin] was tested. Which log did it give?
A: The log was 0.136.

Q: For `CCOc1cccc(C(=O)c2ccc(O)c(O)c2O)c1` [3,4-didesmethyl-5-deshydroxy-3'-ethoxyscleroin], which log is on record?
A: The log was 0.0358.

Q: For `CC(=O)OCC(COC(C)=O)OC(C)=O` [triacetin], which log is on record?
A: Its log is 0.00411.

Q: How did the log turn out when `CN(C)CCN(Cc1cccs1)c1ccccn1` [methapyrilene hydrochloride] was run?
A: The log was -0.0656.

Q: With `COc1ccc2c(c1)OCc1c-2oc2cc(OC)ccc12` [dehydrovariabilin] as the molecule, how does the log read?
A: The log was 0.0957.

Q: With `COc1ccc([C@H]2COc3c(ccc(O)c3OC)C2)c(OC)c1O` [duartin (-)] as the molecule, how does the log read?
A: Its log is 0.124.

Q: With `NCCC[C@H](N)C(=O)O` [ornithine hydrochloride] as the molecule, how does the log read?
A: Its log is 0.116.

Q: `NC(=O)N1c2ccccc2C=Cc2ccccc21` [carbamazepine] was tested. Which log did it give?
A: Its log is -0.206.

Q: For `COc1c2ccoc2nc2c(OC)c(OCC(O)C(C)(C)O)ccc12` (stereo not given) [evoxine], which log is on record?
A: Its log is 0.148.

Q: `CC[C@H]1OC(=O)[C@H](C)[C@@H](O[C@H]2C[C@@](C)(OC)[C@@H](O)[C@H](C)O2)[C@H](C)[C@@H](O[C@@H]2O[C@H](C)C[C@H](N(C)C)[C@H]2O)[C@](C)(O)C[C@@H](C)/C(=N\OCOCCOC)[C@H](C)[C@@H](O)[C@]1(C)O` [roxithromycin] was tested. Which log did it give?
A: The log was 0.0881.

Q: For `O=C([O-])[C@H]1/C(=C/CO)O[C@@H]2CC(=O)N21.[Li+]` [clavulanate lithium], which log is on record?
A: The log was -0.0849.

Q: For `CC(=O)N[C@@H](CC(C)C)C(=O)O` [acetyl-l-leucine], which log is on record?
A: Its log is -0.0941.

Q: For `Nc1nc(=O)c2nc(CNc3ccc(C(=O)N[C@@H](CCC(=O)O)C(=O)O)cc3)cnc2[nH]1` [folic acid], which log is on record?
A: Its log is -0.0435.

Q: `C=CC[S+]([O-])C[C@H](N)C(=O)O` (mixture of isomers) [l(+/-)-alliin] was tested. Which log did it give?
A: Its log is 0.04.

Q: Which log does the source give for `Nc1nc(Cl)nc2c1ncn2[C@@H]1O[C@H](CO)[C@@H](O)[C@@H]1F` [clofarabine] here?
A: Its log is -0.524.

Q: Which log does the source give for `COc1cc2ccc(=O)oc2c(OC)c1OC` [fraxidin methyl ether] here?
A: The log was -0.0389.

Q: With `O=C1CN2Cc3c(ccc(Cl)c3Cl)N=C2N1` [anagrelide hydrochloride] as the molecule, how does the log read?
A: The log was 0.0133.

Q: Which log does the source give for `CC(C)NCC(O)COc1ccc(COCCOC(C)C)cc1` (stereo not given) [bisoprolol fumarate] here?
A: Its log is 0.0513.

Q: Which log does the source give for `Nc1nc(=S)c2ncn([C@@H]3O[C@H](CO)[C@@H](O)[C@H]3O)c2[nH]1` [thioguanosine] here?
A: The log was -0.112.

Q: `C[C@@]12CCc3occc3[C@H]1CC[C@@]13C[C@@H](CC[C@H]12)[C@@](O)(CO)C3` [cafestol] was tested. Which log did it give?
A: Its log is 0.168.

Q: With `CO/N=C(\C(=O)N[C@@H]1C(=O)N2C(C(=O)O)=C(CSc3nc(=O)c(O)nn3C)CS[C@H]12)c1csc(N)n1` [ceftriaxone sodium trihydrate] as the molecule, how does the log read?
A: The log was -0.0348.

— the supplement of paper PMC7024190
